{
  "sequences": {"note": "By UniProt entry, the sequences of proteins in these tests, tags left out.", "UniProt O14980": "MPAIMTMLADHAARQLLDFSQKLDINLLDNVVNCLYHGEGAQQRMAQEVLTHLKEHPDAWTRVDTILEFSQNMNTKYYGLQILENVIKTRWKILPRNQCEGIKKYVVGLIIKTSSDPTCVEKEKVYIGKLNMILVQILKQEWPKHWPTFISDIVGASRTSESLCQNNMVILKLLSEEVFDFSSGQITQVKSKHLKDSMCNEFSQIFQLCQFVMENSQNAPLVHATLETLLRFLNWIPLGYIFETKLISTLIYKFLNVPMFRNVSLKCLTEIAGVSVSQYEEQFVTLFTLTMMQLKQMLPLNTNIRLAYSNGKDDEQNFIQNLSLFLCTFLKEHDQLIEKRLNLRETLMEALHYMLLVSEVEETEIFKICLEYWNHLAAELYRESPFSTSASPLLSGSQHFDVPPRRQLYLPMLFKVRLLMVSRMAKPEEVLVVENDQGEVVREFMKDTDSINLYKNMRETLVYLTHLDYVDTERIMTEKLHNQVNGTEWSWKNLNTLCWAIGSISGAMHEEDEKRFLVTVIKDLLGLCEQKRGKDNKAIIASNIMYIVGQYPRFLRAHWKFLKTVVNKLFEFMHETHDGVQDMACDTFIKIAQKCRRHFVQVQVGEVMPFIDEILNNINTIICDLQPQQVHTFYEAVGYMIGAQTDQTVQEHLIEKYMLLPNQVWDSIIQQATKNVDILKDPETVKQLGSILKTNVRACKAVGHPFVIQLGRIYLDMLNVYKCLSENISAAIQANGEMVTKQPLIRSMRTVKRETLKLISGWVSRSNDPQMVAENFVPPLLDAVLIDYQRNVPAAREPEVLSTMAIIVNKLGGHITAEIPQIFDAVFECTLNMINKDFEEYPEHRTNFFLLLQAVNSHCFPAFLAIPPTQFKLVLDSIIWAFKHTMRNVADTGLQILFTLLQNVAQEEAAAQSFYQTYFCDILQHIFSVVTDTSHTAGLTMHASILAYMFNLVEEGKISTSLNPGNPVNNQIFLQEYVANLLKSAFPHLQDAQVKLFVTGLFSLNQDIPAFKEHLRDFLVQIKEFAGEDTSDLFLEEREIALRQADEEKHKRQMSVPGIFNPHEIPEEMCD", "UniProt Q12894": "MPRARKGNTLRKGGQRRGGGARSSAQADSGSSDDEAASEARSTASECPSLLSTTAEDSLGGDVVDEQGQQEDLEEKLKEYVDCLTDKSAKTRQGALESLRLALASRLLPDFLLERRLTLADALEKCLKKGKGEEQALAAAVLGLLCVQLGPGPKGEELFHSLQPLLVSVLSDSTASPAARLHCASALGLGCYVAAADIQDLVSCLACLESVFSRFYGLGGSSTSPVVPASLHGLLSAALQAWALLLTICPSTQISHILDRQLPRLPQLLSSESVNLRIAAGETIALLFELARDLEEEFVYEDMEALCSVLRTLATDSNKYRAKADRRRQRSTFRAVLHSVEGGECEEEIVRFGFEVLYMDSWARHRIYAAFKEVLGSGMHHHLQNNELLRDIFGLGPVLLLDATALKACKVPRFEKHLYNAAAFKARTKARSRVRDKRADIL", "UniProt Q71RC2": "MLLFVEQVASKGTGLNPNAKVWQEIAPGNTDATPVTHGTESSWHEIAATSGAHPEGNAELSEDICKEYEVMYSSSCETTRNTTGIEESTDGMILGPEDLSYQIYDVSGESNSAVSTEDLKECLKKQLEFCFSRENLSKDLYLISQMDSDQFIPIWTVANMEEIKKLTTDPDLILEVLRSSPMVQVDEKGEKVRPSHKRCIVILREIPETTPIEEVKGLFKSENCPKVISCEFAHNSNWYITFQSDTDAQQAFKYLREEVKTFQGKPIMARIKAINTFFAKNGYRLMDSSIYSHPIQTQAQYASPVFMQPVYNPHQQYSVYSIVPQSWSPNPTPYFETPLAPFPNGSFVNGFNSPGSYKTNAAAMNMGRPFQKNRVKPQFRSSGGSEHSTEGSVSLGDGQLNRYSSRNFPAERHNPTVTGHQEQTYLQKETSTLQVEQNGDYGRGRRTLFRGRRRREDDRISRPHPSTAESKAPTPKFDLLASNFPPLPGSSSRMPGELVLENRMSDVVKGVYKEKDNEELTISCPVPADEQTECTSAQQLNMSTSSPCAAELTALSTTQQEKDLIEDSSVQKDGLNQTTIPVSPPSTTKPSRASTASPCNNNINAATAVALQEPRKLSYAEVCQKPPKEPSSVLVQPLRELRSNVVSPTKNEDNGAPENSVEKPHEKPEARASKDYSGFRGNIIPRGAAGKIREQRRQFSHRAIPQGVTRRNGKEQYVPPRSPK"},
  "source": "paper PMC13128273",
  "note": "No constants are given. Whether binding was seen depends on the method and setting. In cells and extracts the contact can be indirect. These calls come from enrichment with a bait or labelling near it, and not all partners need be listed. A no says only that the protein was not detected with the bait. Where a sequence is shown, tags or fusion partners need not be part of it.",
  "data": [
    {"target": "T1, HERC5-3×FLAG (wild type) (human) (UniProt Q9UII4)", "T1 sequence": "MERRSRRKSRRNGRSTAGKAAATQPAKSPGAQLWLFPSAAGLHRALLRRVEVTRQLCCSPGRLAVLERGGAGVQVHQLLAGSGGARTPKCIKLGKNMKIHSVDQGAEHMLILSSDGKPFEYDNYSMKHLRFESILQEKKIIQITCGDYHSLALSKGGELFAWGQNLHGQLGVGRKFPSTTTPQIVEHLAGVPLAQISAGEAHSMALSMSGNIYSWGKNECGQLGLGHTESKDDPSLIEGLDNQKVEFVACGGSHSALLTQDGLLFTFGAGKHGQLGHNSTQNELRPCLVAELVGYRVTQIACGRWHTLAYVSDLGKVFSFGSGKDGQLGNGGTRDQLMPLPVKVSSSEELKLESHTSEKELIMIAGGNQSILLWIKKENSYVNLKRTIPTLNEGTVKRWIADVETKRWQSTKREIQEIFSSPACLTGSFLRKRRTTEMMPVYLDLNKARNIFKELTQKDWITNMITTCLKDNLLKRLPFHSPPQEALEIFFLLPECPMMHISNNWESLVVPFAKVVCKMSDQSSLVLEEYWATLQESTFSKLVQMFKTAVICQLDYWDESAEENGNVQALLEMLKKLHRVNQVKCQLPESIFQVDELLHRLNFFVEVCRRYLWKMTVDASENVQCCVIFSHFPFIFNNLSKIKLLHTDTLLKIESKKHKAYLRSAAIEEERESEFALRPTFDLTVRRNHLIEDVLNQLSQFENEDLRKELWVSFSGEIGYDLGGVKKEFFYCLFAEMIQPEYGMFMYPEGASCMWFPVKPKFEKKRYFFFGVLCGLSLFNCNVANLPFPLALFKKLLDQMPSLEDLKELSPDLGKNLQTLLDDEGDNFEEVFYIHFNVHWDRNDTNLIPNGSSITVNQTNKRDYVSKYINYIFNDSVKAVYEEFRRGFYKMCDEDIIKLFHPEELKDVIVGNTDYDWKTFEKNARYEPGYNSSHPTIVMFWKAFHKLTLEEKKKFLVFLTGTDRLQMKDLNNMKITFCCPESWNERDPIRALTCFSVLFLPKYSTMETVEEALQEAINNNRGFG", "test": "affinity purification with mass spectrometry; HERC5-3×FLAG WT or C994A precipitated with anti-FLAG M2 from transfected HEK293T lysate (Lysis150 buffer), eluted with 3×FLAG peptide, SDS–PAGE, in-gel trypsin digestion, LC–MS/MS with label-free quantification; HERC5-3×MYC as negative control", "values": [
      {"substance": "CRM1 (from UniProt O14980 1-1071)", "binding": "no binding"},
      {"substance": "IFRD2 (from UniProt Q12894 1-442)", "binding": "binds"},
      {"substance": "LARP4 (from UniProt Q71RC2 1-724)", "binding": "binds"}
    ]}
  ]
}
